From patent US8648037B2, “Macrocyclic proline derived HCV serine protease inhibitors” (priority 2010, dated 2014)
Where two headings read alike, the source gives them in different places. For some assays here: For at least one compound, name, drawing or mass did not settle the structure. Some entries share one result that the patent states for a list of compounds.

Columns and labels:
[1] = system: HCV genotype 3a wild-type transient replicon; assay: genotype 3a wild-type transient replicon assay; assay type: cell-based, hepatitis C virus (HCV)
[2] = system: HCV genotype 3a S138T variant transient replicon; assay: genotype 3a S138T transient replicon assay; assay type: cell-based, hepatitis C virus (HCV); conditions: range bounds printed with their own units (nM, μM)
[3] = system: HCV genotype 3a wild-type stable replicon (chimeric, NS3 gene from genotype 3a isolates); assay: genotype 3a wild-type stable replicon assay; assay type: cell-based, hepatitis C virus (HCV)
[4] = target: HCV genotype 1a (1a-H77) stable subgenomic replicon; assay: genotype 1a Huh-7 stable replicon assay (luciferase reporter); assay type: cell-based, hepatitis C virus (HCV)
[5] = system: HCV genotype 1a wild-type transient replicon; assay: genotype 1a wild-type transient replicon assay; assay type: cell-based, hepatitis C virus (HCV)
[6] = system: HCV genotype 1a R155K variant transient replicon; assay: genotype 1a R155K transient replicon assay; assay type: cell-based, hepatitis C virus (HCV)
[7] = target: HCV genotype 1b Con1 stable subgenomic replicon; assay: genotype 1b Con1 stable replicon assay (luciferase reporter); assay type: cell-based, hepatitis C virus (HCV)
[8] = system: HCV genotype 1b wild-type transient replicon; assay: genotype 1b wild-type transient replicon assay; assay type: cell-based, hepatitis C virus (HCV)
[9] = system: HCV genotype 1b D168V variant transient replicon; assay: genotype 1b D168V transient replicon assay; assay type: cell-based, hepatitis C virus (HCV)
[10] = system: HCV genotype 3a Q168R variant transient replicon; assay: genotype 3a Q168R transient replicon assay; assay type: cell-based, hepatitis C virus (HCV)
[11] = system: HCV genotype 1a D168V variant transient replicon; assay: genotype 1a D168V transient replicon assay; assay type: cell-based, hepatitis C virus (HCV)
HCV R155K variants = conditions: Bartels 2008, Lu 2004, Zhou 2007; cited from earlier work
[12] = genotype 1b wild-type transient replicon
[13] = genotype 1b D168V transient replicon
[14] = genotype 3a Q168R transient replicon

In the case of `C=C[C@@H]1C[C@]1(NC(=O)[C@@H]1C[C@@H]2CN1C(=O)[C@H](C(C)(C)C)NC(=O)O[C@@H]1COC[C@H]1OC/C=C/C(F)(F)c1nc3ccccc3nc1O2)C(=O)NS(=O)(=O)C1CC1` [Example 65], the EC50 ([1]; genotype 3a wild-type transient replicon, range bounds printed with their own units (nM, μM)) is reported as 100 to 1000 nM and the EC50 [2] is reported as 100 to 1000 nM.

`CC(C)(C)[C@@H]1NC(=O)O[C@@H]2CCC[C@H]2OC/C=C/C(F)(F)c2nc3ccc(OC(F)(F)F)cc3nc2O[C@@H]2C[C@@H](C(=O)N[C@]3(C(=O)NS(=O)(=O)C4(C)CC4)C[C@H]3C(F)F)N(C2)C1=O` [Example 275] gave an EC50 ([3]; genotype 3a wild-type stable replicon) of less than 10 nM, an EC50 ([1]; genotype 3a wild-type transient replicon) of less than 10 nM and an EC50 ([4]; genotype 1a Huh-7 stable replicon, luciferase, 5% FBS) of less than 1 nM. The EC50 ([5]; genotype 1a wild-type transient replicon) was less than 0.1 nM, the EC50 ([6]; genotype 1a R155K transient replicon) was less than 0.1 nM and the EC50 ([7]; genotype 1b Con1 stable replicon) was less than 1 nM. For the same compound, the EC50 [8, 12] was less than 1 nM, the EC50 [9, 13] was less than 1 nM and the EC50 [10, 14] was less than 100 nM.

In the case of `C=C[C@@H]1C[C@]1(NC(=O)[C@@H]1C[C@@H]2CN1C(=O)[C@H](C(C)(C)C)NC(=O)O[C@@H]1CCC[C@H]1OC/C=C/C(F)(F)c1nc3ccc(OC(F)(F)F)cc3nc1O2)C(=O)NS(=O)(=O)C1(C)CC1` [Example 276], the EC50 [3] is reported as less than 10 nM, the EC50 [1] is reported as less than 10 nM and the EC50 [4] is reported as less than 1 nM. For the same compound, the EC50 [5] was less than 0.1 nM, the EC50 [11] was less than 1 nM and the EC50 [6] was less than 0.1 nM. The EC50 [7] was less than 1 nM, the EC50 [8] was less than 1 nM and the EC50 [9] was less than 1 nM. The EC50 [10] was less than 100 nM.

With `COc1ccc2nc3c(nc2c1)C(F)(F)/C=C/CO[C@@H]1CCC[C@H]1OC(=O)N[C@@H](C(C)(C)C)C(=O)N1C[C@@H](C[C@H]1C(=O)N[C@]1(C(=O)NS(=O)(=O)C2(C)CC2)C[C@H]1C(F)F)O3` [Example 282] the EC50 [8, 12] was less than 1 nM, the EC50 [9, 13] was less than 1 nM and the EC50 [10, 14] was less than 100 nM.

In the case of `CC(C)(C)NC(=O)N[C@H](C(=O)N1C[C@H]2[C@@H]([C@H]1C(=O)NC(CC1CCC1)C(=O)C(N)=O)C2(C)C)C(C)(C)C` (some centres unmarked) [boceprevir], the “resistance conferred by R155K variants” value (HCV R155K variants) is given as “low-level resistance”.

In the case of `CCC[C@H](NC(=O)[C@@H]1[C@H]2CCC[C@H]2CN1C(=O)[C@@H](NC(=O)[C@@H](NC(=O)c1cnccn1)C1CCCCC1)C(C)(C)C)C(=O)C(=O)NC1CC1` [telaprevir], the “resistance conferred by R155K variants” value (HCV R155K variants) is listed as “low-level resistance”.
